Measured values: PubChem BioAssay AID504444 (National Center for Advancing Translational Sciences (NCATS), 2011)
Out of some 360,000 compounds screened, about 7,500 (2.1%) were called active. This list was built around the results that the source calls inconclusive (neither active nor inactive); the mix of calls is not that of the screen. Calls follow the shape of the dose curve; as a rule, active = well fitted inhibition curve with a large enough effect; inconclusive = small, poorly fitted or top-dose-only effect, or effect the other way; inactive = flat fitted curve, though single readings scatter. Potencies beside an inconclusive call are fits to weak or partial responses and may not hold up.
% is scaled to controls: 0 for no effect and ±100 for the full control effect; potency is read from the fitted curve at half-maximal effect.

Assay: Nrf2 qHTS screen for inhibitors; also: nearly all actives have a fitted effect of over 60% in size
Conditions: A549 ARE-Fluc reporter, luciferase luminescence, 18-24 h; activity change, negative = inhibition: at 46 µM (top of the series)
How it was run: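 Two sequential reads on A549 ARE_Fluc cells exposed to compound for 18-24 h: a CellTiter-Fluor fluorescence read for viability, then a luciferase luminescence read for Nrf2/ARE activity.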
With `COC(=O)c1ccc(N2CCN(S(=O)(=O)c3ccccc3)CC2)c([N+](=O)[O-])c1` the Potency was inconclusive: 4.11 µM [activator, partial curve, poor fit]. With `c1ccc(-c2nc(NCC3CCCO3)c3ccccc3n2)nc1` (stereo not given) the Potency was inconclusive: 13 µM [falling, partial curve]. With `CCOC(=O)c1sc(=NC(=O)c2ccccc2)n(C)c1C` the Potency was inconclusive: 23.1 µM [activator, partial curve]. In the case of `CC(C)c1cc2c(s1)c1cnn(Cc3ccccc3F)c(=O)c1n2C`, the Potency is reported as inconclusive: 32.6 µM [falling, single point]. With `COc1ccc(NS(=O)(=O)c2cc(NC(=O)C3=NN(c4ccccc4)C(=O)CC3)ccc2C)cc1` the Potency was inconclusive: 7.31 µM [falling, partial curve]. With `CCN1C(=O)S/C(=C/c2ccc(Sc3nc4ccccc4[nH]3)o2)C1=O` the Potency was active: 20.6 µM. With `CCC(=O)N1CCc2cc(S(=O)(=O)NCCC(=O)N3CCN(c4cccc(C)c4)C(C)C3)ccc21` (stereo not given) the Potency was active: 18.4 µM. With `O=C(N/N=C/c1c[nH]c2ccccc12)c1ccc(Br)cc1` the Potency was inconclusive: 14.6 µM [activator, partial curve, poor fit]. In the case of `CC(C)CN1C(=O)C(=O)N(CC(=O)NC(C)CCc2ccccc2)C1=O` (stereo not given), the Potency is reported as inconclusive: 0.291 µM [falling, full curve, poor fit]. In the case of `CCC1=NN(C(=O)c2ccccc2O)C(O)(c2ccccc2)C1` (stereo not given), the “activity change, negative = inhibition” value is reported as inactive: -13%. For `COc1cccc(C(=O)NC(=S)Nc2ccc3c4c(cccc24)CC3)c1`, the Potency was inconclusive: 23.1 µM [activator, partial curve, poor fit]. For `COc1ccc2c(=O)c(-c3cnn(-c4ccccc4)c3)c(C)oc2c1`, the Potency was inconclusive: 6.51 µM [falling, partial curve, poor fit]. For `N#C/C(C(=O)Oc1ccccc1)=C1\C=CC=CN1`, the Potency was inconclusive: 2.06 µM [activator, full curve]. With `C/C(N)=C(/C#N)C(=O)CSc1nnc(Nc2ccccc2)s1` the Potency was inconclusive: 29.1 µM [activator, single point]. For `C[C@H](NC(=O)c1ccc(C(C)(C)C)cc1)C(=O)N1CCN(C/C=C/c2ccccc2)CC1`, the Potency was inconclusive: 29.1 µM [falling, single point]. In the case of `O=C(NC1CCN(C(=O)N2c3ccccc3Sc3ccccc32)CC1)c1ccccc1F`, the Potency is reported as inconclusive: 7.31 µM [falling, partial curve]. In the case of `CSc1ccc(CCNc2ncnc3onc(C)c23)cc1`, the Potency is reported as active: 7.31 µM. In the case of `CC1CC(C)(C)NC(=S)N1CCCC(=O)Nc1ccc(Cl)cc1` (stereo not given), the Potency is reported as inconclusive: 5.8 µM [falling, full curve, poor fit]. With `Cc1sc(NC(=S)NC(=O)c2ccccc2)c(C#N)c1C` the Potency was inconclusive: 8.2 µM [falling, partial curve, poor fit]. With `Cc1c(C(=O)NC(=S)NCC(C)C)oc2ccccc12` the Potency was inconclusive: 8.2 µM [activator, partial curve]. In the case of `O=C(Nc1nnc(-c2cccs2)o1)c1cccc(Oc2ccccc2)c1`, the Potency is reported as inconclusive: 29.1 µM [falling, single point]. For `O=C(COC(=O)c1c(F)cccc1F)Nc1ccc(N2CCCCC2)cc1`, the Potency was inconclusive: 16.4 µM [activator, partial curve, poor fit]. With `CCOC(=O)c1ccc(NC(=O)c2cc3cc(C)ccc3n2C)cc1` the “activity change, negative = inhibition” value was inactive: 9.39%. With `Cc1ccc(C(=O)NC(=S)NNC(=O)c2ccccc2O)cc1` the Potency was inconclusive: 1.84 µM [activator, partial curve]. For `CC1CCCC(n2c(=S)[nH]c3ccccc3c2=O)C1C` (stereo not given), the Potency was inconclusive: 25.9 µM [falling, single point]. In the case of `COC(=O)C1=C(C(=O)OC)[C@@H]2N(C)c3ccc(OC)cc3[C@@]23C[C@@H](C(=O)OC)N(C(=O)c2cc(C)oc2C)C3=N1`, the Potency is reported as inconclusive: 25.9 µM [falling, single point]. For `Cn1c(SCC(=O)N2CCCCCC2)nc2c([nH]c3ccccc32)c1=O`, the Potency was inconclusive: 6.51 µM [falling, partial curve, poor fit]. With `COc1cc(C=NOC(=O)Nc2ccccc2)cc(OC)c1OC` the Potency was inconclusive: 13 µM [activator, partial curve, poor fit]. For `Cc1cc(NS(=O)(=O)c2ccc(NC(=O)COc3ccc(Cl)cc3)cc2)nc(C)n1`, the Potency was inconclusive: 18.4 µM [falling, partial curve, poor fit]. For `O=C(Nc1ccc2oc(-c3cccc4ccccc34)nc2c1)c1ncn[nH]1`, the Potency was inconclusive: 3.26 µM [activator, full curve, poor fit]. For `CC1CC=CC2C1C(=O)N(Cc1ccccc1)C2c1ccc(F)c(Br)c1` (stereo not given), the Potency was inconclusive: 16.4 µM [falling, partial curve, poor fit]. For `COc1ccc(/C=C2\SC(=NCc3ccccc3)N(Cc3ccccc3)C2=O)cc1OC`, the Potency was inconclusive: 29.1 µM [falling, single point]. In the case of `CSc1ccc(CN2CCC(CO)(Cc3ccc(Cl)cc3)CC2)cc1`, the Potency is reported as inconclusive: 29.1 µM [falling, single point]. In the case of `COc1ccc(CN2CCCCCC2)cc1OC`, the Potency is reported as inconclusive: 16.4 µM [falling, partial curve]. With `Cc1cccc(-n2ncc3c(NCCN4CCOCC4)ncnc32)c1` the Potency was inconclusive: 5.8 µM [activator, partial curve]. For `CCn1c(SCC(=O)NCC(=O)Nc2ccc(F)cc2)nnc1-c1cccs1`, the Potency was inconclusive: 23.1 µM [falling, single point]. For `O=C(O)c1c2c(nc3ccccc13)/C(=C/c1ccc(OC(F)F)cc1)CCC2`, the Potency was inconclusive: 18.4 µM [activator, partial curve]. In the case of `Cc1cccc(-n2ncc3c(N4CC(C)CC(C)C4)ncnc32)c1` (stereo not given), the Potency is reported as inconclusive: 5.8 µM [activator, partial curve]. With `CC1(C)CC2(CC(c3ccccc3)c3ccc(O)cc3O2)NC(=S)N1` (stereo not given) the “activity change, negative = inhibition” value was inactive: -11.6%. In the case of `Cc1nn(C)c(C(=O)N2CCN(C(=O)c3ccco3)CC2)c1[N+](=O)[O-]`, the Potency is reported as inconclusive: 32.6 µM [activator, single point].
